Measurements as given in the supplement of paper PMC10849652.
The other results are listed elsewhere or left out.

Chains of the proteins cited; added tags and fusions are not shown. Lines headed by an entry give the natural chain unless they say otherwise; changes in a name come on top.
UniProt Q9NRZ7: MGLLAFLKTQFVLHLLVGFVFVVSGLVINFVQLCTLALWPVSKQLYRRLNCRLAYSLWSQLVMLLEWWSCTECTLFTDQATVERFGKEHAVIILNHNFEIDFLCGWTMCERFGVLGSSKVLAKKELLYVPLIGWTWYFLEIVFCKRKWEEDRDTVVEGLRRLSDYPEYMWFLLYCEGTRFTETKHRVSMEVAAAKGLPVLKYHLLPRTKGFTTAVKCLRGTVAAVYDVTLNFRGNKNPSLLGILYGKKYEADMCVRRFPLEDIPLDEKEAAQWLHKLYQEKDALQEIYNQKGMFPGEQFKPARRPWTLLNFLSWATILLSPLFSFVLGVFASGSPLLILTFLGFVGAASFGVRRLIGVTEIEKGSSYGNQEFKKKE
UniProt P14621: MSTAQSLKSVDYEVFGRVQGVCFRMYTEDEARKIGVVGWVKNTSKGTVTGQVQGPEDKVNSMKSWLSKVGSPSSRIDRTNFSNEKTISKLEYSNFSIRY
UniProt P02771: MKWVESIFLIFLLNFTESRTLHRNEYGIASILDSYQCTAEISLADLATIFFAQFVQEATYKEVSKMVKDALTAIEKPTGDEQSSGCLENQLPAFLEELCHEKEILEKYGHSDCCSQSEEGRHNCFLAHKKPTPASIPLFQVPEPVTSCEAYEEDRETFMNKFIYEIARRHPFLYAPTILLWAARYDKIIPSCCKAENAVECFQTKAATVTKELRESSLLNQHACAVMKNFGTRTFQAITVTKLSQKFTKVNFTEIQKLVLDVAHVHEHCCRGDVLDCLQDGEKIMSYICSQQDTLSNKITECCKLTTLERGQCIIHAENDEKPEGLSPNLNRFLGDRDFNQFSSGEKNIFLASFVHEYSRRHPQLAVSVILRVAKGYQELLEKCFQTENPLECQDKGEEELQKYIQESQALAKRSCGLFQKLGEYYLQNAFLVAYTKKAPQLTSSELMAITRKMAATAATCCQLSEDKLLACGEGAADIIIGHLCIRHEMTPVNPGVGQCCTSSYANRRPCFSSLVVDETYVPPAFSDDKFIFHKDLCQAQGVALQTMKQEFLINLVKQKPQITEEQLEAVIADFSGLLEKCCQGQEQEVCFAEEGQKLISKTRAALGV
UniProt Q9NZD4: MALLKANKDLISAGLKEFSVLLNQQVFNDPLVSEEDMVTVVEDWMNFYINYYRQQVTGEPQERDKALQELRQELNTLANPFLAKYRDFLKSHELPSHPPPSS
UniProt Q02952: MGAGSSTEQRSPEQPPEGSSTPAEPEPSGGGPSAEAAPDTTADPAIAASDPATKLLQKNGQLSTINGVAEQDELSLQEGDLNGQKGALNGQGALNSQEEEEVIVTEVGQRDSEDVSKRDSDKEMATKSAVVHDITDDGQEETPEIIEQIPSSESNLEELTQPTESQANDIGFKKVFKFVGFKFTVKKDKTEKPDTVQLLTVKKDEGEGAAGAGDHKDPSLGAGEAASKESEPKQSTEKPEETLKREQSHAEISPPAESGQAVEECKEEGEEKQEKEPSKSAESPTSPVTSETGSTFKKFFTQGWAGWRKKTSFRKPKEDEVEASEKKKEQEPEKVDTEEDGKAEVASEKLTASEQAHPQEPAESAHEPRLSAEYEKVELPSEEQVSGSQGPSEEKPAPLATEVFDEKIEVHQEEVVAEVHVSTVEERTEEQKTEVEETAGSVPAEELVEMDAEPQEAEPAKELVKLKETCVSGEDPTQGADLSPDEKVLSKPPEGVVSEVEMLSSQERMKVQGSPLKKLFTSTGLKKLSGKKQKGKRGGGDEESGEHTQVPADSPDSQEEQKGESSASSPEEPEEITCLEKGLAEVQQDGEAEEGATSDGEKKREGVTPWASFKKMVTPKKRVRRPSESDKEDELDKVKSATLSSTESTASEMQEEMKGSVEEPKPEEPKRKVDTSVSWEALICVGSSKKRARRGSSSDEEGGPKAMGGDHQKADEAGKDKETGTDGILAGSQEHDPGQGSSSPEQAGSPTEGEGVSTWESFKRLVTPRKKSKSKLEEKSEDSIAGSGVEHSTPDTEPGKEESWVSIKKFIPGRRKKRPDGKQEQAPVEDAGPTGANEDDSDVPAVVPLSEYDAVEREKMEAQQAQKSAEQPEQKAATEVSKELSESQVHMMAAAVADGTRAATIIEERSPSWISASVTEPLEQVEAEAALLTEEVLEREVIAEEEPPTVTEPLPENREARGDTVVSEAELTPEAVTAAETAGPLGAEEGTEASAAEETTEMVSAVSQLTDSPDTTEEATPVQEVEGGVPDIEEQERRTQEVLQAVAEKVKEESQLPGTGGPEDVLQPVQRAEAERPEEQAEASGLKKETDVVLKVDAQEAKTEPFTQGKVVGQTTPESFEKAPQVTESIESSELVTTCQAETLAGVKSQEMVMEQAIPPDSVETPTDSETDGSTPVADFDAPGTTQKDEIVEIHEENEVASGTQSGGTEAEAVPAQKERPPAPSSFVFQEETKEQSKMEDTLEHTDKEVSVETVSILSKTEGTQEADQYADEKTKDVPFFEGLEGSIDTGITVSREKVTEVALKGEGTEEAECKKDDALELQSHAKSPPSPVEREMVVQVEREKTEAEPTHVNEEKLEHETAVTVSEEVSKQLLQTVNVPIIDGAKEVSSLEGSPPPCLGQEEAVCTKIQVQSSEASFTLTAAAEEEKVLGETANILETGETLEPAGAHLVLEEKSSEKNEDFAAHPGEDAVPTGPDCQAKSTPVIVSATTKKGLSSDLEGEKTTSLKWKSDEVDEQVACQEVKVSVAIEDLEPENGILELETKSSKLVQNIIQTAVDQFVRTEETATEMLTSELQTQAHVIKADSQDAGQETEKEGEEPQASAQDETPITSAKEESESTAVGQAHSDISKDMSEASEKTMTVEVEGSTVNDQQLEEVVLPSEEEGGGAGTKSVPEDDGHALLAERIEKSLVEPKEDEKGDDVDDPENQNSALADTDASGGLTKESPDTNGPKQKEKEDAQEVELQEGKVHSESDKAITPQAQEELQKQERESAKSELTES
UniProt Q53H80, whole entry, looked up: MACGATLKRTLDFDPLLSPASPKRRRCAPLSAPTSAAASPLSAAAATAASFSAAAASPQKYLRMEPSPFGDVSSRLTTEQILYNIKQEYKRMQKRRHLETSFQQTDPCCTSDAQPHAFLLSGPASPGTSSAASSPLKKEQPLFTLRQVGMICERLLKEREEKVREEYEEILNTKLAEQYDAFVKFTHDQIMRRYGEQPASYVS
UniProt Q9Y6K8: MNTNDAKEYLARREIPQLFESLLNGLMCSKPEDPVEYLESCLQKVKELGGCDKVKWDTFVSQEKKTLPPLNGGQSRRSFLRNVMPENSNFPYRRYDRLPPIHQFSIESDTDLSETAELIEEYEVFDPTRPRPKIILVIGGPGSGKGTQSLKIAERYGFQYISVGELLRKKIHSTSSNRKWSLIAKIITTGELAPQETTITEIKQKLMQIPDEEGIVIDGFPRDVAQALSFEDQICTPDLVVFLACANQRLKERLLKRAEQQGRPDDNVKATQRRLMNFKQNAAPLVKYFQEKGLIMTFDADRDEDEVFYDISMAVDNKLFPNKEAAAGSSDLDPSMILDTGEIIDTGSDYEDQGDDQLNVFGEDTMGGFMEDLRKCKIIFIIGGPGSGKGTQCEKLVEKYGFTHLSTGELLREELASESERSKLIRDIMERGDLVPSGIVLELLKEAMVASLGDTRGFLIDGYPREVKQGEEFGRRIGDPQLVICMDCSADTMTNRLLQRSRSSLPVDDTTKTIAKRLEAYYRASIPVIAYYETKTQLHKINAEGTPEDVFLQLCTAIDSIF
UniProt Q8WV93: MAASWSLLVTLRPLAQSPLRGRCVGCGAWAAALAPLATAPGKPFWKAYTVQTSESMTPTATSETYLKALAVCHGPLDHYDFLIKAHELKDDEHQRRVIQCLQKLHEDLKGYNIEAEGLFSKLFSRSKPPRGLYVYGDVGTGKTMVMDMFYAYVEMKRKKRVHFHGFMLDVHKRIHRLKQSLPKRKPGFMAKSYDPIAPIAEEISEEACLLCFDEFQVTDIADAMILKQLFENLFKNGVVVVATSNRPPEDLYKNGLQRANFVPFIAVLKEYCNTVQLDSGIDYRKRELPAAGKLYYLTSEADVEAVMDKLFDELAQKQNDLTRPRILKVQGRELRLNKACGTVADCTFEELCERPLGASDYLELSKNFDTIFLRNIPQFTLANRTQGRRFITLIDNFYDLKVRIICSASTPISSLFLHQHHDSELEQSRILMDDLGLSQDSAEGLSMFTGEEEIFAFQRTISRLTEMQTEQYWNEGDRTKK
UniProt Q8N302: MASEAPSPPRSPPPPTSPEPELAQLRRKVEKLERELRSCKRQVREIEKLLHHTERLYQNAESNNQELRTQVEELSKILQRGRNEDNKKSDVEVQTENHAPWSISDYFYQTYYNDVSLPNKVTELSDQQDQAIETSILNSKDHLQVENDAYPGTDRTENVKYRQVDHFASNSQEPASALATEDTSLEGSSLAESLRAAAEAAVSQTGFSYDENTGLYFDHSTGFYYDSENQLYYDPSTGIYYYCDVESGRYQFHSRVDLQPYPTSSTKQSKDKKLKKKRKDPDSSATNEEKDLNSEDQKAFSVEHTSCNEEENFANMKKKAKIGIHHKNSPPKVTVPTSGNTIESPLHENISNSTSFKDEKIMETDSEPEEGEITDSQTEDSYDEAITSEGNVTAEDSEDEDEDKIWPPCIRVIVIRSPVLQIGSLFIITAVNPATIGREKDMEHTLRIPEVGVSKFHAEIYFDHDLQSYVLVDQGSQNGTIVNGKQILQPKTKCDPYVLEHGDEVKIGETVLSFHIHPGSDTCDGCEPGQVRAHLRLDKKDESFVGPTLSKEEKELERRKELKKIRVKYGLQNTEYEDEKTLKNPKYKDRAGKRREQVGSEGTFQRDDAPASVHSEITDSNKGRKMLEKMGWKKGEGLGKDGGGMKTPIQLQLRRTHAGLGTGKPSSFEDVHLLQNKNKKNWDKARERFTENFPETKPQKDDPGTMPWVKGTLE
UniProt Q6RW13: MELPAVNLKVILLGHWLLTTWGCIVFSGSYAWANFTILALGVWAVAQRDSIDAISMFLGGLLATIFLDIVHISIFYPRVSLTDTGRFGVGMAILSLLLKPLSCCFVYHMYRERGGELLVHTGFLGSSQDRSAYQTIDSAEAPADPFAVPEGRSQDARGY
UniProt P42330: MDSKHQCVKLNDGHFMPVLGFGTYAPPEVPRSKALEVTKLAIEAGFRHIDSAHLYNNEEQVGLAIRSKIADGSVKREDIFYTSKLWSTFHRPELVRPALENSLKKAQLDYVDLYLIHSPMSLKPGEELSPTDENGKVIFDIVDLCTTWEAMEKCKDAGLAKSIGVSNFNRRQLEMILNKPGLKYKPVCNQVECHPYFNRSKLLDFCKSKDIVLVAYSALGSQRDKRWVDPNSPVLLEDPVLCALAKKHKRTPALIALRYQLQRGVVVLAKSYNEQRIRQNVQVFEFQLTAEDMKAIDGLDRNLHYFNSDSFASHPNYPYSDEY
UniProt P27144: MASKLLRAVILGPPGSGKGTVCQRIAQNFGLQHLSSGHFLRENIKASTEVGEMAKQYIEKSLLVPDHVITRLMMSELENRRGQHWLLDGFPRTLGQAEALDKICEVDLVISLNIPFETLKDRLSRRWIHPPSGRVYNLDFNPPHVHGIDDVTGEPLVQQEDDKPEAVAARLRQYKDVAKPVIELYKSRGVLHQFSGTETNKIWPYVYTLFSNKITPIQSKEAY
UniProt Q13155: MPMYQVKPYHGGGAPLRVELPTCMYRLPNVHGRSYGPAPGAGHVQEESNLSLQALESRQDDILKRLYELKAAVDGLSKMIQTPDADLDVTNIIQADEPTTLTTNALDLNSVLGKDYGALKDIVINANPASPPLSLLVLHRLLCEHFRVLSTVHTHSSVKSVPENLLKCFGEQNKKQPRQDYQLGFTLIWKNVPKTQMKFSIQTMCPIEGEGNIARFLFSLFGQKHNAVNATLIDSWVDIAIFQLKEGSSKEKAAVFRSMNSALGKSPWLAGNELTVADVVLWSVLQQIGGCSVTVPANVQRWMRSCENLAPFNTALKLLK
UniProt P55008: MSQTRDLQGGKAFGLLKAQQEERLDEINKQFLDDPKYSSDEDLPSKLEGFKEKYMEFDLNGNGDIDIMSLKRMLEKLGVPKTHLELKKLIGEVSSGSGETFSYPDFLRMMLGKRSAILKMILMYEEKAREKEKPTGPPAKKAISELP
UniProt O95081: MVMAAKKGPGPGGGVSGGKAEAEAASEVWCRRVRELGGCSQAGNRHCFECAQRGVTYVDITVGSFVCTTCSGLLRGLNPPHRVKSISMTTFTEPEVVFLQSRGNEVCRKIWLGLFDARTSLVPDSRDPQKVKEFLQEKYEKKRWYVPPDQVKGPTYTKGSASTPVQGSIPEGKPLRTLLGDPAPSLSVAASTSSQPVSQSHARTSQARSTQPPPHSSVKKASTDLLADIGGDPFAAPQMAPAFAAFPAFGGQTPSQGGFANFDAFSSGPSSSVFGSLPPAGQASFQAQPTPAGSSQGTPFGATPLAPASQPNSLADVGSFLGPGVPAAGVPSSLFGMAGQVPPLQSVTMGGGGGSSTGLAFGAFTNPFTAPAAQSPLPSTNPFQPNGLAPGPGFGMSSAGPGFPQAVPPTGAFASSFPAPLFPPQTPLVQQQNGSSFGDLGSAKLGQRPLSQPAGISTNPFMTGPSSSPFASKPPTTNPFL

Legend:
Assay in all cases: log2 fold change, soluble protein after heating vs DMSO (PISA); higher = thermal stabilisation; K562 lysate, 10 uM; active = over 0.2 and 3.5 SD of the protein, either way, in both replicates (recomputed)
[1] = compound: CS(=O)(=O)CCNCc1ccc(-c2ccc3ncnc(Nc4ccc(OCc5cccc(F)c5)c(Cl)c4)c3c2)o1 [lapatinib]
Procedure, shortened: (§1)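 Following dounce homogenisation of K562 pellets in PBS pH 7.4 with 1 mM MgCl2, crude extract at 1 mg/mL protein was incubated for 30 min with 10 μM compound. Aliquots were then heated for 3 min over 48°C-58°C and pooled, NP-40 was added to 0.5% at 4°C, and soluble protein was recovered as the supernatant at 21,000xg for 90 min. Channel-sum-equalised TMTpro 16plex LC-MS/MS quantified this protein. Each value, from duplicates, is a log-two fold change in thermal stability relative to solvent controls.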

[2] = compound: CS(=O)(=O)N1CCN(Cc2cc3nc(-c4cccc5[nH]ncc45)nc(N4CCOCC4)c3s2)CC1 [pictilisib]
Procedure, shortened: as §1

[3] = compound: C[C@@H](Oc1cc(-c2cnn(C3CCNCC3)c2)cnc1N)c1c(Cl)ccc(F)c1Cl [crizotinib]
Procedure, shortened: as §1

[4] = compound: C[C@H](C1=CC=C(C=C1)C(=O)NC2=C3C=CNC3=NC=C2)N
Procedure, shortened: as §1

[5] = compound: C[C@H](Nc1ncnc2nc[nH]c12)c1cc2cccc(Cl)c2c(=O)n1-c1ccccc1 [duvelisib]
Procedure, shortened: as §1

[6] = compound: Cc1cc(Nc2cc(CN3CCOCC3)c3nc(C)c(Cc4ccc(Cl)cc4F)n3n2)n[nH]1 [gandotinib]
Procedure, shortened: as §1

[7] = compound: Cc1cc(Nc2cc(N3CCN(C)CC3)nc(Sc3ccc(NC(=O)C4CC4)cc3)n2)n[nH]1 [tozasertib]
Procedure, shortened: as §1

[8] = compound: Cc1ccc(-n2nc(C(C)(C)C)cc2NC(=O)Nc2ccc(OCCN3CCOCC3)c3ccccc23)cc1 [doramapimod]
Procedure, shortened: as §1

[9] = compound: Cc1ccc(NC(=O)c2ccc(CN3CC[C@H](N(C)C)C3)c(C(F)(F)F)c2)cc1Nc1nccc(-c2cncnc2)n1 [bafetinib]
Procedure, shortened: as §1

[10] = compound: Cc1cccc(CC(=O)N2CCc3c2ccc(-c2cn(C)c4ncnc(N)c24)c3F)n1
Procedure, shortened: as §1

Measured: log2 fold change

ACTR1B (UniProt P42025)
inactive: [1] -0.021 | [2] 0.038 | [3] -0.005 | [4] -0.017 | [5] 0.016 | [6] 0.005 | [7] -0.029 | [8] -0.008 | [9] -0.006 | [10] -0.039

ACOT8 (UniProt O14734)
inactive: [1] 0.033 | [2] -0.049 | [3] -0.058 | [4] -0.034 | [5] -0.041 | [6] 0.021 | [7] 0.023 | [8] 0.038 | [9] -0.014 | [10] 0.089

ACY1 (UniProt Q03154)
inactive: [1] 0.004 | [2] -0.03 | [3] 0.049 | [4] -0.015 | [5] 0.04 | [6] 0.016 | [7] 0.032 | [8] 0.004 | [9] 0.001 | [10] -0.012

AGPAT3 isoform 3 (UniProt Q9NRZ7)
inactive: [1] -0.045 | [2] 0.013 | [3] -0.063 | [4] -0.085 | [5] -0.033 | [6] 0.075 | [7] 0.019 | [8] 0.009 | [9] -0.102 | [10] 0.063

ADAM10 (UniProt O14672)
inactive: [1] -0.033 | [2] -0.012 | [3] 0.014 | [4] -0.145 | [5] 0.043 | [6] 0.028 | [7] -0.003 | [8] 0.024 | [9] 0.038 | [10] 0.005

AGFG1 isoform 4 (UniProt P52594)
inactive: [1] 0 | [2] -0.084 | [3] 0.046 | [4] -0.026 | [5] -0.01 | [6] 0.102 | [7] 0.004 | [8] 0.032 | [9] -0.008 | [10] 0.014

AKAP11 (UniProt Q9UKA4)
inactive: [1] 0.021 | [2] -0.08 | [3] 0.025 | [4] -0.02 | [5] 0.015 | [6] -0.176 | [7] 0.061 | [8] -0.036 | [9] -0.084 | [10] -0.005

AHCYL1 (UniProt O43865)
inactive: [1] -0.001 | [2] 0.008 | [3] -0.028 | [4] -0.012 | [5] 0.043 | [6] -0.067 | [7] -0.031 | [8] 0.013 | [9] -0.047 | [10] 0.001

ACTN2, A0A494C031
inactive: [1] -0.144 | [2] -0.16 | [3] -0.221 | [4] -0.064 | [6] 0.066 | [7] -0.067 | [8] 0.149 | [9] -0.067 | [10] 0.439

AFAP1L1 (UniProt Q8TED9)
inactive: [1] -0.104 | [2] -0.218 | [3] 0.08 | [5] 0.073 | [7] -0.036 | [8] -0.035 | [9] -0.017

2 records picked at random from those above, as already listed:
AHCYL1 (UniProt O43865)
inactive: [1] -0.001 | [2] 0.008 | [3] -0.028 | [4] -0.012 | [5] 0.043 | [6] -0.067 | [7] -0.031 | [8] 0.013 | [9] -0.047 | [10] 0.001

AKAP11 (UniProt Q9UKA4)
inactive: [1] 0.021 | [2] -0.08 | [3] 0.025 | [4] -0.02 | [5] 0.015 | [6] -0.176 | [7] 0.061 | [8] -0.036 | [9] -0.084 | [10] -0.005

Remaining list, next part:

ACTR1A (UniProt P61163)
inactive: [1] -0.001 | [2] -0.024 | [3] -0.01 | [4] -0.036 | [5] 0.014 | [6] 0.042 | [7] -0.027 | [8] -0.018 | [9] 0.008 | [10] 0.025

ACYP2 (UniProt P14621)
inactive: [1] -0.049 | [2] -0.065 | [3] 0.082 | [4] 0.217 | [6] -0.076 | [8] -0.024 | [9] -0.002 | [10] -0.105

ACSL5 isoform 3 (UniProt Q9ULC5)
inactive: [1] -0.033 | [2] 0.011 | [3] -0.131 | [4] 0.104 | [5] 0 | [6] -0.09 | [8] 0.018 | [9] -0.056 | [10] -0.139

AEBP2 (UniProt Q6ZN18)
inactive: [1] 0.031 | [2] 0.005 | [3] -0.059 | [5] -0.026 | [8] 0.009 | [9] 0.036

AFP (UniProt P02771)
inactive: [1] 0.123 | [2] -0.053 | [3] 0.084 | [4] 0.116 | [5] -0.026 | [6] -0.051 | [7] -0.011 | [8] -0.032 | [9] 0.023 | [10] -0.154

ADCK5 (UniProt Q3MIX3)
inactive: [1] 0.023 | [3] 0.024 | [5] 0.002 | [7] -0.035 | [8] 0.031

ACTL6A (UniProt O96019)
inactive: [1] -0.008 | [2] -0.034 | [3] -0.037 | [4] -0.037 | [5] -0.006 | [6] 0.025 | [7] 0.015 | [8] 0.005 | [9] 0 | [10] 0.016

ADK, A0A5F9ZH76
inactive: [1] -0.013 | [2] -0.074 | [9] 0.147

ACTB (UniProt C9JTX5)
inactive: [1] -0.103 | [2] -0.396 | [3] 0.014 | [4] -0.198 | [5] 0.094 | [6] -0.381 | [8] 0.098 | [9] -0.048 | [10] 0.061

AHSP (UniProt Q9NZD4)
inactive: [1] 0.054 | [2] 0.025 | [4] 0.321 | [6] -0.086 | [7] 0.033 | [9] -0.152 | [10] -0.105

ACTG1 (UniProt I3L4N8)
inactive: [1] -0.072 | [2] -0.209 | [3] -0.066 | [4] -0.039 | [5] 0.13 | [6] -0.159 | [7] 0.083 | [8] -0.065 | [9] -0.183 | [10] -0.096

AKAP12 (UniProt Q02952)
inactive: [1] 0.087 | [2] -0.063 | [3] -0.019 | [4] -0.304 | [5] 0.009 | [6] 0.073 | [7] 0.218 | [8] 0 | [9] -0.271 | [10] 0.234

AKAP10 (UniProt O43572)
inactive: [1] 0.059 | [2] 0.039 | [3] 0.006 | [5] 0.103 | [7] -0.146 | [8] 0.103 | [9] -0.042

AKIRIN2 (UniProt Q53H80)
inactive: [1] -0.029 | [3] 0.006 | [4] 0.037 | [5] -0.073 | [6] -0.068 | [7] -0.095 | [8] -0.017 | [10] -0.036

AK5 (UniProt Q9Y6K8)
inactive: [1] -0.032 | [2] 0.021 | [3] 0.046 | [5] 0.022 | [7] -0.008 | [8] -0.039 | [9] -0.002

ADIPOR2 (UniProt Q86V24)
inactive: [1] -0.16 | [2] -0.008 | [3] -0.1 | [5] -0.08 | [7] -0.105 | [8] 0.044 | [9] 0.089

AFG1L (UniProt Q8WV93)
inactive: [1] 0.056 | [3] -0.085 | [5] -0.027 | [7] -0.158 | [8] -0.152

ADAM15 (UniProt Q13444)
inactive: [1] -0.018 | [2] 0.041 | [3] -0.039 | [4] 0.008 | [5] 0.121 | [6] 0.041 | [8] 0.03 | [9] 0.108 | [10] 0.139

AGGF1 (UniProt Q8N302)
inactive: [1] -0.046 | [2] -0.133 | [3] -0.028 | [4] -0.193 | [6] 0.139 | [7] 0.04 | [8] -0.011 | [9] 0.047 | [10] 0.268

ADAMTSL4 isoform 3 (UniProt Q6UY14)
inactive: [1] 0.005 | [2] 0.023 | [3] -0.052 | [4] -0.037 | [5] 0.1 | [6] 0.066 | [8] 0.157 | [9] 0.015 | [10] 0.092

AGTRAP isoform 2 (UniProt Q6RW13)
inactive: [1] 0.003 | [2] 0.088 | [4] -0.138 | [6] 0.146 | [9] -0.008 | [10] 0.156

AKR1C3 (UniProt P42330)
inactive: [1] -0.03 | [2] -0.024 | [3] -0.039 | [4] -0.014 | [5] -0.036 | [6] 0.052 | [7] -0.003 | [8] 0.022 | [9] 0.022 | [10] -0.026

AK4 (UniProt P27144)
inactive: [1] -0.003 | [2] -0.033 | [3] 0.028 | [4] -0.027 | [5] 0.014 | [6] -0.019 | [7] 0.052 | [8] 0.03 | [9] -0.024 | [10] 0.012

ACSL6 isoform 1 (UniProt Q9UKU0)
inactive: [1] -0.027 | [2] 0.055 | [4] 0.038 | [6] -0.117 | [9] -0.151 | [10] 0.056

AIMP2 isoform 2 (UniProt Q13155)
inactive: [1] -0.058 | [2] -0.148 | [3] -0.036 | [8] -0.019 | [9] -0.082

AIF1 (UniProt P55008)
inactive: [1] -0.037 | [3] -0.046 | [4] 0.171 | [5] 0.015 | [6] -0.222 | [8] 0.009 | [10] -0.148

AGFG2 (UniProt O95081)
inactive: [1] 0.002 | [3] 0.111 | [5] 0.041 | [7] -0.02 | [8] -0.107

AGAP1 (UniProt Q9UPQ3)
inactive: [1] 0.005 | [2] -0.002 | [3] -0.034 | [4] -0.027 | [5] -0.109 | [6] 0.013 | [8] 0.015 | [9] -0.016 | [10] 0.076

ACTB (UniProt C9JUM1)
inactive: [1] 0.091 | [2] -0.268 | [9] 0.197

ADD1 isoform 4 (UniProt P35611)
active: [4] -0.745
inactive: [1] -0.006 | [2] -0.168 | [5] 0.029 | [6] 0.556 | [7] -0.044 | [9] 0.097 | [10] 0.563
